The values below come from article PMC11542072.

The chains behind the UniProt entries cited, without tags or fusion partners.
UniProt Q12756: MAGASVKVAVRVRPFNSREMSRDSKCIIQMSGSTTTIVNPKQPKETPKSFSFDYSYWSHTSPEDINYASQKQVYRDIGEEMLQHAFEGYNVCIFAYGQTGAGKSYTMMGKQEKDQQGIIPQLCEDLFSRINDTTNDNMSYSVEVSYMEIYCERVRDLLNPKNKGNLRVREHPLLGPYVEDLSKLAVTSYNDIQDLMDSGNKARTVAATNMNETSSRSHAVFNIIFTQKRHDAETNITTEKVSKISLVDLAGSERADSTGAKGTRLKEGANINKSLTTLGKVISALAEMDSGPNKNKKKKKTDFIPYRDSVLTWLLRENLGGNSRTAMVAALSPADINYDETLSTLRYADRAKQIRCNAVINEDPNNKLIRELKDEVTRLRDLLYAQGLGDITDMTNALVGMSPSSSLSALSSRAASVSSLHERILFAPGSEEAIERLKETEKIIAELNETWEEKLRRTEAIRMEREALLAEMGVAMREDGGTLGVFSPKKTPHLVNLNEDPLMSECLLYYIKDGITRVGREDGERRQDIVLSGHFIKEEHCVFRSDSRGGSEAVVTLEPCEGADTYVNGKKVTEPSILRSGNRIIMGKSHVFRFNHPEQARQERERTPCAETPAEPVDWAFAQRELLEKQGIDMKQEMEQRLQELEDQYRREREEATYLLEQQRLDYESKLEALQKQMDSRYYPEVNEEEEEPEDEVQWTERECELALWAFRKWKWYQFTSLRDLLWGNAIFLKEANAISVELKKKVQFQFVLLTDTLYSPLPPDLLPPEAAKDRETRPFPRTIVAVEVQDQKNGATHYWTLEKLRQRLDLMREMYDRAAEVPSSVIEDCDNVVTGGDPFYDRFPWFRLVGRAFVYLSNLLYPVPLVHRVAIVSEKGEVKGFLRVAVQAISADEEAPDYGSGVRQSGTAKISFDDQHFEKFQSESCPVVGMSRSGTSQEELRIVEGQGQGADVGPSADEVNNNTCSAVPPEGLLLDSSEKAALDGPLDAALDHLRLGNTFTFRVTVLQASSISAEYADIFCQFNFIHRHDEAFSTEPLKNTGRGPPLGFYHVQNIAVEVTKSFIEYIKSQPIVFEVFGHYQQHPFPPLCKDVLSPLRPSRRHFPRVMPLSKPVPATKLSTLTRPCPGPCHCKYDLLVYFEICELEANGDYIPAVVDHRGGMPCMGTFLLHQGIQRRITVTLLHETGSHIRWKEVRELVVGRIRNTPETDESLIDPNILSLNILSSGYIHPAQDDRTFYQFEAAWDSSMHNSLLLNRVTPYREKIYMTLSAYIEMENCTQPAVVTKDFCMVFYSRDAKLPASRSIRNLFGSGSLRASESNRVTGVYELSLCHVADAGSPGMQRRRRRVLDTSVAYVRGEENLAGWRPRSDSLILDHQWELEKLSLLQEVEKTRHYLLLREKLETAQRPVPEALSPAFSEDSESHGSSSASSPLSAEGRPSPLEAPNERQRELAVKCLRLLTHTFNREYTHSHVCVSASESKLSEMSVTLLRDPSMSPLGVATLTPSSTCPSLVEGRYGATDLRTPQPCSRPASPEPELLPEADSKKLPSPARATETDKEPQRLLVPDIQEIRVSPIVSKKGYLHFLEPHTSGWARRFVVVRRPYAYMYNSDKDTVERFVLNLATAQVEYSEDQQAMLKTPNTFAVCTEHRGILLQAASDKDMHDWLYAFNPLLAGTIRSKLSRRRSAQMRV

For this test, the target named is Kinesin-like protein (KIF1A) (human (endogenous in LNCaP-AI and LNCaP)) (UniProt Q12756). Put plainly: affinity purification with mass spectrometry; immunoprecipitation of KIF1A from LNCaP-AI cells and mass spectrometry to screen for KIF1A-binding proteins.

No constants are given. Whether binding was seen depends on the method and setting. In cells and extracts the contact can be indirect. A yes stands for co-enrichment or nearness to the bait. Other partners may have been found. Tags and fused reporters may be left off the sequences shown.

B1: PRDX1 (protein, UniProt Q06830 1-199)
chain: MSSGNAKIGHPAPNFKATAVMPDGQFKDISLSDYKGKYVVFFFYPLDFTFVCPTEIIAFSDRAEEFKKLNCQVIGASVDSHFCHLAWVNTPKKQGGLGPMNIPLVSDPKRTIAQDYGVLKADEGISFRGLFIIDDKGILRQITVNDLPVGRSVDETLRLVQAFQFTDKHGEVCPAGWKPGSDTIKPDVQKSKEYFSKQK
Take B1: the binding result is “binds”.

B2: O-linked N-acetylglucosamine transferase (OGT) (enzyme, UniProt O15294 1-1046)
chain: MASSVGNVADSTEPTKRMLSFQGLAELAHREYQAGDFEAAERHCMQLWRQEPDNTGVLLLLSSIHFQCRRLDRSAHFSTLAIKQNPLLAEAYSNLGNVYKERGQLQEAIEHYRHALRLKPDFIDGYINLAAALVAAGDMEGAVQAYVSALQYNPDLYCVRSDLGNLLKALGRLEEAKACYLKAIETQPNFAVAWSNLGCVFNAQGEIWLAIHHFEKAVTLDPNFLDAYINLGNVLKEARIFDRAVAAYLRALSLSPNHAVVHGNLACVYYEQGLIDLAIDTYRRAIELQPHFPDAYCNLANALKEKGSVAEAEDCYNTALRLCPTHADSLNNLANIKREQGNIEEAVRLYRKALEVFPEFAAAHSNLASVLQQQGKLQEALMHYKEAIRISPTFADAYSNMGNTLKEMQDVQGALQCYTRAIQINPAFADAHSNLASIHKDSGNIPEAIASYRTALKLKPDFPDAYCNLAHCLQIVCDWTDYDERMKKLVSIVADQLEKNRLPSVHPHHSMLYPLSHGFRKAIAERHGNLCLDKINVLHKPPYEHPKDLKLSDGRLRVGYVSSDFGNHPTSHLMQSIPGMHNPDKFEVFCYALSPDDGTNFRVKVMAEANHFIDLSQIPCNGKAADRIHQDGIHILVNMNGYTKGARNELFALRPAPIQAMWLGYPGTSGALFMDYIITDQETSPAEVAEQYSEKLAYMPHTFFIGDHANMFPHLKKKAVIDFKSNGHIYDNRIVLNGIDLKAFLDSLPDVKIVKMKCPDGGDNADSSNTALNMPVIPMNTIAEAVIEMINRGQIQITINGFSISNGLATTQINNKAATGEEVPRTIIVTTRSQYGLPEDAIVYCNFNQLYKIDPSTLQMWANILKRVPNSVLWLLRFPAVGEPNIQQYAQNMGLPQNRIIFSPVAPKEEHVRRGQLADVCLDTPLCNGHTTGMDVLWAGTPMVTMPGETLASRVAASQLTCLGCLELIAKNRQEYEDIAVKLGTDLEYLKKVRGKVWKQRISSPLFNTKQYTMELERLYLQMWEHYAAGNKPDHMIKPVEVTESA
As for B2, the binding entry was “binds”.
